Tests used:
[1] = tested on: primary murine microglial cells
[2] = tested on: microglia, monocytes/macrophages and lymphocytes in the brain and spinal cord; details: mouse, in vivo

Row | SMILES | proliferation of CSF-1-stimulated primary murine microglial cells [1] | proliferative activity of unstimulated primary murine microglial cells [1] | CD86 expression (MFI) on microglia and monocyte/macrophage populations [2]
1 | CCN(C(=O)c1c(O)c2c(Cl)cccc2n(C)c1=O)c1ccccc1 [Laquinimod] | no effect or increased the proliferative activity | increased level of proliferative activity | 
2 | COc1ccc(C2COc3cc(Cn4cnc5cc(C#CC(C)(C)N)cnc54)ccc3O2)cn1 (stereo not shown) [Genz-882706, 4-(3-((2-(6-methoxypyridin-3-yl)-2,3-dihydrobenzo[b][1,4]dioxin-6-yl)methyl)-3H-imidazo[4,5-b]pyridin-6-yl)-2-methylbut-3-yn-2-amine] |  | increased level of proliferative activity | No significant effects

From patent publication US11274108B2 (priority 2015, dated 2022)
